# Peptide text beside a SMILES is read from it.
# Tested on: Human erythrocytes
# Test: Haemolysis assay using human blood
# Assay type: cell-based
# Conditions: therapeutic index, HC50 over A. baumannii NCTC13420 MIC
# Description: To determine the extent of haemolytic activity (the ability to lyse red blood cells) in test peptides, a haemolysis assay was conducted using human blood (BioIVT, West Sussex, UK). Human erythrocytes were exposed to a single fixed concentration or a range of concentrations as to determine the % haemolysis (fixed concentration) or the concentration at which 50% haemolysis occurred (HC50), respectively. Prior to the assay, whole human blood was repeatedly washed in phosphate buffered saline (PBS) under cooled conditions to remove the buffy coat, plasma and cell debris. Washed erythrocytes were diluted as to achieve 1×10^8 cells/mL in PBS. Prepared human erythrocyte samples were combined with peptide at a single fixed concentration of 128 μg/mL, or a range of concentrations (two-fold dilution series) from 1000-31.25 μg/mL. Positive and negative controls containing 2% (v/v) Triton X-100 and PBS alone, respectively, were also prepared. Samples were incubated at 37° C. for 1 hour and then centrifuged to collect intact erythrocytes. Haemoglobin release was determined by recording the optical density of the supernatant at 540 nm. Optical density values were transformed to a percentage of the positive control. Results were recorded as a percentage haemolysis at 128 μg/mL, or by plotting the percentage haemolysis versus concentration and extrapolating the HC50 using linear regression analysis (Table 2 above)
# The therapeutic index is a widely-accepted parameter to represent the specificity of antimicrobial peptides for prokaryotic versus eukaryotic cells. It is calculated by the ratio of hemolytic activity and antimicrobial activity (MIC) (Table 2 above); thus, larger values of therapeutic index indicate greater specificity for prokaryotic cells. With the peptides used in this study the inventors used the HC50/MIC ratio value to calculate the therapeutic index.
row,SMILES,HC50/A.b MIC selectivity ratio
1,CC(=O)N[C@H](CCCCN)C(=O)N[C@H](CC(C)C)C(=O)N[C@H](CCCCN)C(=O)N[C@H](CCCCN)C(=O)N[C@H](CC(C)C)C(=O)N[C@H](CC(C)C)C(=O)N[C@H](CCCCN)C(=O)N[C@H](CCCCN)C(=O)N[C@H](CC(C)C)C(=O)N[C@H](CO)C(=O)N[C@H](CO)C(=O)N[C@H](C)C(=O)N[C@H](CCCCN)C(=O)N[C@H](CO)C(=O)N[C@H](CO)C(=O)N[C@H](CCCCN)C(=O)N[C@H](CC(C)C)C(=O)N[C@H](CO)C(=O)N[C@@H](C(=O)N[C@H](CC(C)C)C(=O)N[C@H](CC(C)C)C(=O)N[C@H](CCCCN)C(=O)N[C@H](CCCCN)C(=O)N[C@H](CC(C)C)C(=O)N[C@H](CCCCN)C(=O)N[C@H](CCCCN)C(N)=O)[C@H](C)O [compound 3] (HELM PEPTIDE1{[ac].[dK].[dL].[dK].[dK].[dL].[dL].[dK].[dK].[dL].[dS].[dS].[dA].[dK].[dS].[dS].[dK].[dL].[dS].[dT].[dL].[dL].[dK].[dK].[dL].[dK].[dK].[am]}$$$$V2.0),>1000
2,CC(=O)N[C@H](CCCCN)C(=O)N[C@H](CC(C)C)C(=O)N[C@H](CO)C(=O)N[C@H](CO)C(=O)N[C@H](CC(C)C)C(=O)N[C@H](CC(C)C)C(=O)N[C@H](CO)C(=O)N[C@H](CCCCN)C(=O)N[C@H](CC(C)C)C(=O)N[C@H](CCCCN)C(=O)N[C@H](CCCCN)C(=O)N[C@H](C)C(=O)N[C@H](CCCCN)C(=O)N[C@H](CCCCN)C(=O)N[C@H](CCCCN)C(=O)N[C@H](CCCCN)C(=O)N[C@H](CC(C)C)C(=O)N[C@H](CCCCN)C(=O)N[C@H](CCCCN)C(=O)N[C@H](CC(C)C)C(=O)N[C@H](CC(C)C)C(=O)N[C@H](CCCCN)C(=O)N[C@H](C)C(=O)N[C@H](CC(C)C)C(=O)N[C@H](CO)C(=O)N[C@H](CO)C(N)=O [compound 5] (HELM PEPTIDE1{[ac].[dK].[dL].[dS].[dS].[dL].[dL].[dS].[dK].[dL].[dK].[dK].[dA].[dK].[dK].[dK].[dK].[dL].[dK].[dK].[dL].[dL].[dK].[dA].[dL].[dS].[dS].[am]}$$$$V2.0),669
3,CC(=O)N[C@H](CCCCN)C(=O)N[C@H](CC(C)C)C(=O)N[C@H](CCCCN)C(=O)N[C@H](CCCCN)C(=O)N[C@H](CC(C)C)C(=O)N[C@H](CC(C)C)C(=O)N[C@H](CCCCN)C(=O)N[C@H](CCCCN)C(=O)N[C@H](CC(C)C)C(=O)N[C@H](CCCCN)C(=O)N[C@H](CO)C(=O)N[C@H](C)C(=O)N[C@H](CCCCN)C(=O)N[C@H](CO)C(=O)N[C@H](CO)C(=O)N[C@H](CCCCN)C(=O)N[C@H](CC(C)C)C(=O)N[C@H](CO)C(=O)N[C@@H](C(=O)N[C@H](CC(C)C)C(=O)N[C@H](CC(C)C)C(=O)N[C@H](CO)C(=O)N[C@H](CCCCN)C(=O)N[C@H](CC(C)C)C(=O)N[C@H](CCCCN)C(=O)N[C@H](CCCCN)C(N)=O)[C@H](C)O [compound 6] (HELM PEPTIDE1{[ac].[dK].[dL].[dK].[dK].[dL].[dL].[dK].[dK].[dL].[dK].[dS].[dA].[dK].[dS].[dS].[dK].[dL].[dS].[dT].[dL].[dL].[dS].[dK].[dL].[dK].[dK].[am]}$$$$V2.0),>1000
4,CC(=O)N[C@H](C)C(=O)N[C@H](CC(C)C)C(=O)N[C@H](CCCCN)C(=O)N[C@H](CCCCN)C(=O)N[C@H](CC(C)C)C(=O)N[C@H](CC(C)C)C(=O)N[C@H](CCCCN)C(=O)N[C@H](CCCCN)C(=O)N[C@H](CC(C)C)C(=O)N[C@H](CO)C(=O)N[C@H](CO)C(=O)N[C@H](C)C(=O)N[C@H](CCCCN)C(=O)N[C@H](CO)C(=O)N[C@H](CO)C(=O)N[C@H](CCCCN)C(=O)N[C@H](CC(C)C)C(=O)N[C@H](CO)C(=O)N[C@@H](C(=O)N[C@H](CC(C)C)C(=O)N[C@H](CC(C)C)C(=O)N[C@H](CCCCN)C(=O)N[C@H](CCCCN)C(=O)N[C@H](CC(C)C)C(=O)N[C@H](CCCCN)C(=O)N[C@H](CCCCN)C(N)=O)[C@H](C)O [compound 8] (HELM PEPTIDE1{[ac].[dA].[dL].[dK].[dK].[dL].[dL].[dK].[dK].[dL].[dS].[dS].[dA].[dK].[dS].[dS].[dK].[dL].[dS].[dT].[dL].[dL].[dK].[dK].[dL].[dK].[dK].[am]}$$$$V2.0),>500
5,CC(=O)N[C@H](C)C(=O)N[C@H](CC(C)C)C(=O)N[C@H](CO)C(=O)N[C@H](CO)C(=O)N[C@H](CC(C)C)C(=O)N[C@H](CC(C)C)C(=O)N[C@H](CO)C(=O)N[C@H](CCCCN)C(=O)N[C@H](CC(C)C)C(=O)N[C@H](CCCCN)C(=O)N[C@H](CCCCN)C(=O)N[C@H](C)C(=O)N[C@H](CCCCN)C(=O)N[C@H](CCCCN)C(=O)N[C@H](CCCCN)C(=O)N[C@H](CCCCN)C(=O)N[C@H](CC(C)C)C(=O)N[C@H](CCCCN)C(=O)N[C@H](CCCCN)C(=O)N[C@H](CC(C)C)C(=O)N[C@H](CC(C)C)C(=O)N[C@H](CCCCN)C(=O)N[C@H](C)C(=O)N[C@H](CC(C)C)C(=O)N[C@H](CO)C(=O)N[C@H](CO)C(N)=O [compound 10] (HELM PEPTIDE1{[ac].[dA].[dL].[dS].[dS].[dL].[dL].[dS].[dK].[dL].[dK].[dK].[dA].[dK].[dK].[dK].[dK].[dL].[dK].[dK].[dL].[dL].[dK].[dA].[dL].[dS].[dS].[am]}$$$$V2.0),>500
6,CC(=O)N[C@H](CCCCN)C(=O)N[C@H](CC(C)C)C(=O)N[C@H](CCCCN)C(=O)N[C@H](CCCCN)C(=O)N[C@H](CC(C)C)C(=O)N[C@H](CC(C)C)C(=O)N[C@H](CCCCN)C(=O)N[C@H](CCCCN)C(=O)N[C@H](CC(C)C)C(=O)N[C@H](CO)C(=O)N[C@H](CO)C(=O)N[C@H](C)C(=O)N[C@H](CCCN)C(=O)N[C@H](CO)C(=O)N[C@H](CO)C(=O)N[C@H](CCCN)C(=O)N[C@H](CC(C)C)C(=O)N[C@H](CO)C(=O)N[C@@H](C(=O)N[C@H](CC(C)C)C(=O)N[C@H](CC(C)C)C(=O)N[C@H](CCCCN)C(=O)N[C@H](CCCCN)C(=O)N[C@H](CC(C)C)C(=O)N[C@H](CCCCN)C(=O)N[C@H](CCCCN)C(N)=O)[C@H](C)O [compound 14] (HELM PEPTIDE1{[ac].[dK].[dL].[dK].[dK].[dL].[dL].[dK].[dK].[dL].[dS].[dS].[dA].[NCCC[C@@H](N[*:1])C(=O)[*:2]].[dS].[dS].[NCCC[C@@H](N[*:1])C(=O)[*:2]].[dL].[dS].[dT].[dL].[dL].[dK].[dK].[dL].[dK].[dK].[am]}$$$$V2.0),>500
7,CC(=O)N[C@H](CCCCN)C(=O)N[C@H](CC(C)C)C(=O)N[C@H](CCCCN)C(=O)N[C@H](CCCCN)C(=O)N[C@H](CC(C)C)C(=O)N[C@H](CC(C)C)C(=O)N[C@H](CCCCN)C(=O)N[C@H](CCCCN)C(=O)N[C@H](CC(C)C)C(=O)N[C@H](CO)C(=O)N[C@H](CO)C(=O)N[C@H](C)C(=O)N[C@H](CCN)C(=O)N[C@H](CO)C(=O)N[C@H](CO)C(=O)N[C@H](CCN)C(=O)N[C@H](CC(C)C)C(=O)N[C@H](CO)C(=O)N[C@@H](C(=O)N[C@H](CC(C)C)C(=O)N[C@H](CC(C)C)C(=O)N[C@H](CCCCN)C(=O)N[C@H](CCCCN)C(=O)N[C@H](CC(C)C)C(=O)N[C@H](CCCCN)C(=O)N[C@H](CCCCN)C(N)=O)[C@H](C)O [compound 15] (HELM PEPTIDE1{[ac].[dK].[dL].[dK].[dK].[dL].[dL].[dK].[dK].[dL].[dS].[dS].[dA].[NCC[C@@H](N[*:1])C(=O)[*:2]].[dS].[dS].[NCC[C@@H](N[*:1])C(=O)[*:2]].[dL].[dS].[dT].[dL].[dL].[dK].[dK].[dL].[dK].[dK].[am]}$$$$V2.0),>500
8,CC(=O)N[C@H](CCCCN)C(=O)N[C@H](CC(C)C)C(=O)N[C@H](CCCCN)C(=O)N[C@H](CCCCN)C(=O)N[C@H](CC(C)C)C(=O)N[C@H](CC(C)C)C(=O)N[C@H](CCCCN)C(=O)N[C@H](CCCCN)C(=O)N[C@H](CC(C)C)C(=O)N[C@H](CO)C(=O)N[C@H](CO)C(=O)N[C@H](C)C(=O)N[C@H](CN)C(=O)N[C@H](CO)C(=O)N[C@H](CO)C(=O)N[C@H](CN)C(=O)N[C@H](CC(C)C)C(=O)N[C@H](CO)C(=O)N[C@@H](C(=O)N[C@H](CC(C)C)C(=O)N[C@H](CC(C)C)C(=O)N[C@H](CCCCN)C(=O)N[C@H](CCCCN)C(=O)N[C@H](CC(C)C)C(=O)N[C@H](CCCCN)C(=O)N[C@H](CCCCN)C(N)=O)[C@H](C)O [compound 16] (HELM PEPTIDE1{[ac].[dK].[dL].[dK].[dK].[dL].[dL].[dK].[dK].[dL].[dS].[dS].[dA].[NC[C@@H](N[*:1])C(=O)[*:2]].[dS].[dS].[NC[C@@H](N[*:1])C(=O)[*:2]].[dL].[dS].[dT].[dL].[dL].[dK].[dK].[dL].[dK].[dK].[am]}$$$$V2.0),>500

# Source: patent US20200377561A1, “ANTIMICROBIAL PEPTIDES AND METHODS OF TREATING GRAM-NEGATIVE PATHOGEN INFECTIONS: POLAR AND NON-POLAR FACE ANALOGS” (THE REGENTS OF THE UNIVERSITY OF COLORADO, a body corporate, priority 2017, published 2020)
